From patent US11452720B2, “Crystalline polymorphs of the free base of 2-hydroxy-6-((2-(1-isopropyl-1H-pyrazol-5-yl)pyridin-3-yl)methoxy)benzaldehyde” (Global Blood Therapeutics, Inc., priority 2014, dated 2022)
Some entries share one result that the patent states for a list of compounds.

Test: Extended solvent mediated maturation of form II / form N mixtures in hexane
Format: physicochemical
Conditions: from maturation studies
Procedure: Extended solvent mediated maturation studies were conducted with 1:1 w/w mixtures of polymorphic form II and form N. Hexane provided a good medium for solvent assessments. The temperatures used include −20° C., −10° C., 0° C., 10° C., 20° C., 30° C., 40° C. and 50° C. […] Solids derived from maturation at −20° C., −10° C., 0° C., 10° C., 20° C. were analyzed by X-ray powder diffraction.

Row | Structure (SMILES) | temperature of equivalence in thermodynamic stability of form II and form N
1 | CC(C)n1nccc1-c1ncccc1COc1cccc(O)c1C=O [Form II, 2-hydroxy-6-((2-(1-isopropyl-1H-pyrazol-5-yl)pyridin-3-yl)methoxy)benzaldehyde] | 30-40 °C
2 | CC(C)n1nccc1-c1ncccc1COc1cccc(O)c1C=O [Material N, 2-hydroxy-6-((2-(1-isopropyl-1H-pyrazol-5-yl)pyridin-3-yl)methoxy)benzaldehyde] | 30-40 °C
